For 14 targets, log2 fold change results are on record in the supplement of paper PMC10849652.

By UniProt entry, the sequences of proteins in these tests, tags left out. Where a name states a change or a piece, a line headed by the entry shows the natural chain unless it says otherwise.
UniProt Q9BRX8: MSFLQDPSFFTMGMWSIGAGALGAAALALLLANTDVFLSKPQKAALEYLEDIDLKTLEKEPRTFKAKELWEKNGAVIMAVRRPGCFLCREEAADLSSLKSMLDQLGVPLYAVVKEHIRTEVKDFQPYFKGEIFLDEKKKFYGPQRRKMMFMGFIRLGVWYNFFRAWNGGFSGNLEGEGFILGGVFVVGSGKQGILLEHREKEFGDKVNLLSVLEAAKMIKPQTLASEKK
UniProt Q92932: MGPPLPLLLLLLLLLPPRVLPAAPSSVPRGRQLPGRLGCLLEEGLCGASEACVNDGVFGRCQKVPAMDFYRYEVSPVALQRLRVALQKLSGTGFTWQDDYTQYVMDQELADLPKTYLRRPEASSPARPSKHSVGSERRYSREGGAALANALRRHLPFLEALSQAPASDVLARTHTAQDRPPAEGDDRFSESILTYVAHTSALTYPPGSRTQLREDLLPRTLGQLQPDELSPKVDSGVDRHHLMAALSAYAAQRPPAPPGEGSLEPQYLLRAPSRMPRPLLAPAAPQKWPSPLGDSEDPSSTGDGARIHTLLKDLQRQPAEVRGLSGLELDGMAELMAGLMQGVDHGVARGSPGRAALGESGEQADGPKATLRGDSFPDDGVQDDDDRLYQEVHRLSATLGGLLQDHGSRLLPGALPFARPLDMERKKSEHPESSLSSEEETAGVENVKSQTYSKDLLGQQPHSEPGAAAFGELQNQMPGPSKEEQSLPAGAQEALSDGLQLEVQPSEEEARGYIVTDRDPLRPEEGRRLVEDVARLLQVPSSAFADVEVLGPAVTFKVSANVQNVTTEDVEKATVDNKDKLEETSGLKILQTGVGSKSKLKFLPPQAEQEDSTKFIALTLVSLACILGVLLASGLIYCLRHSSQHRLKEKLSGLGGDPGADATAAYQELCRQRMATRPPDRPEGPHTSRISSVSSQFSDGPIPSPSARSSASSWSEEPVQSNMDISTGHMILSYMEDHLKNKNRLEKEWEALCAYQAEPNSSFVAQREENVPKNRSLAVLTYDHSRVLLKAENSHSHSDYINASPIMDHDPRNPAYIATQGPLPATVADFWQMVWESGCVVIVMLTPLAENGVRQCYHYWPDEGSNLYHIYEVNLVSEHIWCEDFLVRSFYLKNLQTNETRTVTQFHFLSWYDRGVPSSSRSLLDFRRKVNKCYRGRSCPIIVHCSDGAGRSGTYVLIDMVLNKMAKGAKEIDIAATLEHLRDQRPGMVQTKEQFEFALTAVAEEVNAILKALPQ
UniProt Q9UJV8: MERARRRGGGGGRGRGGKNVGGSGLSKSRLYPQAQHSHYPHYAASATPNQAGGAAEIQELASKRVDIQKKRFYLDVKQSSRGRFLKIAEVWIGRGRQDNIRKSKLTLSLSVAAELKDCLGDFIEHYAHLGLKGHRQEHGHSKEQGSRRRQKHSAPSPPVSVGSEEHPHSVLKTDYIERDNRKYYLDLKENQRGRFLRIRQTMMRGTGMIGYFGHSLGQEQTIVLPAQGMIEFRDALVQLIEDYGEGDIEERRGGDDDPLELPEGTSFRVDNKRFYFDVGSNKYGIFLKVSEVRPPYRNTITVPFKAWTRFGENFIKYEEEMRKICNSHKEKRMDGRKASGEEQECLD
UniProt P53801: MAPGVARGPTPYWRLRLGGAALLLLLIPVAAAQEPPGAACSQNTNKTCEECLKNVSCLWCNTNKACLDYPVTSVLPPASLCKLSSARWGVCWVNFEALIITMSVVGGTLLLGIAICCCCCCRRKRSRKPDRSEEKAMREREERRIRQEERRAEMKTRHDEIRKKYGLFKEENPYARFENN
UniProt O14818: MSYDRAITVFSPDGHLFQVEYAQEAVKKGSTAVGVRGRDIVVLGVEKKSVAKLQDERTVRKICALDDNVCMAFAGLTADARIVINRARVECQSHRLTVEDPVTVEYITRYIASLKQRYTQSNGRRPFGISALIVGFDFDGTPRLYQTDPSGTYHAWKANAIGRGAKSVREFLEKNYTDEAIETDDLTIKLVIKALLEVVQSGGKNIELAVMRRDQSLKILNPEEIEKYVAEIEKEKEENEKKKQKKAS
UniProt Q12913: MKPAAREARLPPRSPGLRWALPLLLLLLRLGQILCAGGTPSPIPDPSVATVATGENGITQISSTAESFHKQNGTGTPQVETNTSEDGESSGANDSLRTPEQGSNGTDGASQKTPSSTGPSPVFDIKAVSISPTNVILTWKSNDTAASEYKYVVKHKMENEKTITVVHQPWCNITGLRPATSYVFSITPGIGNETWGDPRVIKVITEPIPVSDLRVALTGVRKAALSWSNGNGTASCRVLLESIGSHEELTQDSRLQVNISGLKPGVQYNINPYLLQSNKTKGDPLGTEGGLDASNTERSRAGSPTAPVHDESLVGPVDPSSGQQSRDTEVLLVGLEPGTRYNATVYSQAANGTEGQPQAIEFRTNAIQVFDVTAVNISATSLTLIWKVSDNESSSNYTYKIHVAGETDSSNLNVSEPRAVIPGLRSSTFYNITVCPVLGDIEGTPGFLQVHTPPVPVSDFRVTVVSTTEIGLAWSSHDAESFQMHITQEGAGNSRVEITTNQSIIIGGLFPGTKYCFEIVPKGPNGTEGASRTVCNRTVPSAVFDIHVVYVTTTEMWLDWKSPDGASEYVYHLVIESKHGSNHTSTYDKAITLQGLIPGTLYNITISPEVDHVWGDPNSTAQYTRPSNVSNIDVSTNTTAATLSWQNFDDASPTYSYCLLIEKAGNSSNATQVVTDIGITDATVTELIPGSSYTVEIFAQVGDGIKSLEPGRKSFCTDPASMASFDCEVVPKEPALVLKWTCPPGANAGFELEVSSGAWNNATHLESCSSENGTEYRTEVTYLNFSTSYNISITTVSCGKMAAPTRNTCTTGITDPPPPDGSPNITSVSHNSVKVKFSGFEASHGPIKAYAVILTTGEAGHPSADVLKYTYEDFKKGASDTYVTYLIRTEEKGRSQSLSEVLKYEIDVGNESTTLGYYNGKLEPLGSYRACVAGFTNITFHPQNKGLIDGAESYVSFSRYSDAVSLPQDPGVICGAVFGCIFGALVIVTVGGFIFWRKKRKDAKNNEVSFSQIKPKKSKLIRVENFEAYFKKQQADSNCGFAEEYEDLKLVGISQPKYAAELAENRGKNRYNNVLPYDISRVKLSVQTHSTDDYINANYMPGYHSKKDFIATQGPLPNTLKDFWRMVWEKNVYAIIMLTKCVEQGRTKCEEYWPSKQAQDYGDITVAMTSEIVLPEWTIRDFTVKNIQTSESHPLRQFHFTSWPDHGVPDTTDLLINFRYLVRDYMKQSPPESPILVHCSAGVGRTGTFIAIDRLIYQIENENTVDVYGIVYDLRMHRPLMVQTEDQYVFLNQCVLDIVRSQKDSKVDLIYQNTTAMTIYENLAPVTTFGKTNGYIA
UniProt P28065: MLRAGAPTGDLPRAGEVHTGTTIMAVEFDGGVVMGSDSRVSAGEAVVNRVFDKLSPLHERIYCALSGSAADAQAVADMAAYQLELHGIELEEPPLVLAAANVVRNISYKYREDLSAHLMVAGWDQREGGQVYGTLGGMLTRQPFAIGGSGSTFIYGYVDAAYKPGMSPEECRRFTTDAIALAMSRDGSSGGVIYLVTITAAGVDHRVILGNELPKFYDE
UniProt Q7Z5L2: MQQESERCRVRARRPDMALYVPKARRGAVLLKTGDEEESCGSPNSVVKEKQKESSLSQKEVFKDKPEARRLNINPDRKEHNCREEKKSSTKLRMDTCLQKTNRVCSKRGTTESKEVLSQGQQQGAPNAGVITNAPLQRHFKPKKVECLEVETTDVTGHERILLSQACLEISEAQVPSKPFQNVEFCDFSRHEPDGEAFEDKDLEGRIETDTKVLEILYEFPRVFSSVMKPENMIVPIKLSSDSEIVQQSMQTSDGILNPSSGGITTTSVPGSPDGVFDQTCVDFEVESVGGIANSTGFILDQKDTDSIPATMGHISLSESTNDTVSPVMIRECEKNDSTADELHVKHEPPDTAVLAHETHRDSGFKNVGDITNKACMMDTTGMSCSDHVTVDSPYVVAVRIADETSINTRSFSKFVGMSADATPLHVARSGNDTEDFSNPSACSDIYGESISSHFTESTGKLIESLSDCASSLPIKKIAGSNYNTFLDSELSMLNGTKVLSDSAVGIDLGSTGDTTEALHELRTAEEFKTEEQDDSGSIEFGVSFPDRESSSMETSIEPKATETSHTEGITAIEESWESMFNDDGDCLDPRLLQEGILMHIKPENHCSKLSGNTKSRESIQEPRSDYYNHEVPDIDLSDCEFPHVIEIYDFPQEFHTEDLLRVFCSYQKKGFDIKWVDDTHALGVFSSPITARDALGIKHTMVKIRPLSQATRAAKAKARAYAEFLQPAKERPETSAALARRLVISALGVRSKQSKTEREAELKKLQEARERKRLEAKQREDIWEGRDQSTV
UniProt P15151: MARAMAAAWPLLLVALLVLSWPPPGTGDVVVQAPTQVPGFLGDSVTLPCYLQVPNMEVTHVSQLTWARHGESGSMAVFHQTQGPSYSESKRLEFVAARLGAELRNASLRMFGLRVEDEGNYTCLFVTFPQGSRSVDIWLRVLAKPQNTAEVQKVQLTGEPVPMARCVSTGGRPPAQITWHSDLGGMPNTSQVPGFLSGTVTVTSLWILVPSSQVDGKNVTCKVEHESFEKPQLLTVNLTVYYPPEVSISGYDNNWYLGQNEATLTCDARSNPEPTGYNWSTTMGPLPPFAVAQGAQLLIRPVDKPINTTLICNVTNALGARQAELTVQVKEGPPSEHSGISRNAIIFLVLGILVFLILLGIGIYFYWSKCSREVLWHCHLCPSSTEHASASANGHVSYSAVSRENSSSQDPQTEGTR
UniProt Q9UKA9: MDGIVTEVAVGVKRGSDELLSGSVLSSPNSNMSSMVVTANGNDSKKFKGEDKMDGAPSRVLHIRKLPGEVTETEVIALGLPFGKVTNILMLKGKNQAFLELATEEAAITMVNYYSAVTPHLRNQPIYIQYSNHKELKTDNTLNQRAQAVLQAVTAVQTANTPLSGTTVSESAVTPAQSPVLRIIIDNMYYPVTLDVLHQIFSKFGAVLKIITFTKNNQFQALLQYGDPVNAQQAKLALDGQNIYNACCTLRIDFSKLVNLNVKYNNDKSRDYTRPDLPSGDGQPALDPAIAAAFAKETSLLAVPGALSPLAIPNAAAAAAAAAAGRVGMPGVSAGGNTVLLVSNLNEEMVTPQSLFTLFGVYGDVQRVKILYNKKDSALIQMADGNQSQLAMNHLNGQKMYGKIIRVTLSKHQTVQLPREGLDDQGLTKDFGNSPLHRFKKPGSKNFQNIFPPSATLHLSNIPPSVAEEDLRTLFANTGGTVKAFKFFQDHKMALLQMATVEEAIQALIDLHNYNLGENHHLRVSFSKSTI
UniProt P40306: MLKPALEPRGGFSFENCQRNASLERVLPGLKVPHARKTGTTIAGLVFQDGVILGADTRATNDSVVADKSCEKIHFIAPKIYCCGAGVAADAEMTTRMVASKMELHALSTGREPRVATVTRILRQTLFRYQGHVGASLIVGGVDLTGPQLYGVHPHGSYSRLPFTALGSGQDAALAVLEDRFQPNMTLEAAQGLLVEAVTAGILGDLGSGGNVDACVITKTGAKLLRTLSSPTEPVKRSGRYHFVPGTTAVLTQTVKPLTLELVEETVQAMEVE
UniProt Q96I23: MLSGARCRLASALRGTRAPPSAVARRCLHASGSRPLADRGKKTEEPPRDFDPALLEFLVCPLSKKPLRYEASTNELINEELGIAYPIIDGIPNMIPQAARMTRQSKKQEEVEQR

The list shows a part of the results.

Compound in the experiment: CC1=C(C=C(C=C1)NC(=O)C2=CC(=CC=C2)C(C)(C)C#N)NC3=CC4=C(C=C3)N=CN(C4=O)C
As to the kind of experiment: log2 fold change, soluble protein after heating vs DMSO (PISA); higher = thermal stabilisation; K562 cells, 10 uM, 30 min; active = over 0.2 and 3.5 SD of the protein, either way, in both replicates (recomputed). The essentials:
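K562 cells (2×10^6 cells/mL) were treated with 10 μM compound for 30 min, and aliquots were heated for 3 min over 48°C-58°C. Pooled aliquots were extracted in PBS with 0.5% NP-40 at 4°C, and the supernatant after 21,000xg for 90 min was measured by TMTpro 16plex LC-MS/MS with channel sums equalised. Reported thermal stability, relative to control samples and from duplicates, is a log2 fold change.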
For PSMC3 (UniProt E9PLG2), the log2 fold change was inactive: -0.381.
For PRXL2A (UniProt Q9BRX8), the log2 fold change was inactive: 0.012.
PTPRN2 isoform 3 (UniProt Q92932): the log2 fold change was inactive: -0.578.
Take PURG (UniProt Q9UJV8): the log2 fold change is inactive: 0.015.
Regarding PSMD4 (UniProt Q5VWC4), the log2 fold change is inactive: -0.016.
Regarding PTTG1IP (UniProt P53801), the log2 fold change was inactive: 0.122.
Regarding PSMA7 isoform 2 (UniProt O14818), the log2 fold change is inactive: -0.4.
As to PTPRJ (UniProt Q12913), the log2 fold change was inactive: 0.258.
As to PSMB9 (UniProt P28065), the log2 fold change is inactive: -0.137.
Take R3HCC1L (UniProt Q7Z5L2): the log2 fold change was inactive: -0.023.
Take PVR (UniProt P15151): the log2 fold change was inactive: 0.03.
PTBP2 isoform 3 (UniProt Q9UKA9): the log2 fold change was inactive: 0.143.
For PSMB10 (UniProt P40306) the value was inactive: 0.033.
Regarding PYURF (UniProt Q96I23), the log2 fold change was inactive: 0.175.
